Values from PubChem BioAssay AID602196 (INSERM, 2012)

- Screen: 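Genes whose knock-down alters cisplatin killing of lung cancer cells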
- Cell system: human A549 lung cancer cells
- Reagent: siRNA pair against human genes
- Duration: 48 h transfection before cisplatin; time from cisplatin to read-out not stated
- Conditions: cisplatin at a dose killing half of control-siRNA cells; exact dose and duration not given
- Read-out: 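Cisplatin cell death as a shift from the 50% death seen with control siRNA; siRNAs toxic or growth-blocking alone scored 0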
- Reading the numbers: two-siRNA summed score (-2 to +2): higher = both siRNAs protect from cisplatin killing; -2 means both sensitise
- Rule for the call: 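Each siRNA scores 0 if harmful alone by LDH or WST-1, otherwise +1 if it reduces and -1 if it increases cisplatin killing; a gene is active when both siRNAs agree (sum +2 or -2)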
- Meaning of the calls: active = both siRNAs shift cisplatin killing the same way; inactive = no consistent shift, or siRNA harmful alone
The whole screen tested about 23,000 reagents; below is a random part of them. 455 of all reagents (2%) were called active. 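Active includes both protection and sensitisation; some change values fall well beyond the stated -50 to +50 range.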 Not all columns of the deposit are shown. The record does not give: the amount of reagent.

Gene | PubChem SID | two-siRNA summed score (-2 to +2) | outcome
NR2C2 | SID131517888 | 0 | inactive
CRMP1 | SID131518681 | 0 | inactive
CRMP1 | SID131522761 | 1 | inactive
NCBP1 | SID131504229 | 0 | inactive
DUOXA1 | SID131515515 | 0 | inactive
MOB3C | SID131509140 | 0 | inactive
HIF1A | SID131521831 | 1 | inactive
LOC402279 | SID131514743 | 0 | inactive
NUP210L | SID131514950 | 0 | inactive
GRB2 | SID131500868 | -1 | inactive
LOC441070 | SID131514886 | 0 | inactive
GCA | SID131502318 | -1 | inactive
KRT36 | SID131507012 | 0 | inactive
FBF1 | SID131505495 | 0 | inactive
CPNE8 | SID131510593 | 0 | inactive
SEC61A1 | SID131521823 | 1 | inactive
ZNF217 | SID131520660 | 1 | inactive
GGT6 | SID131504256 | 0 | inactive
CD58 | SID131506587 | 0 | inactive
LOC390531 | SID131516667 | 0 | inactive
GPR45 | SID131502677 | -1 | inactive
PHF24 | SID131519524 | 1 | inactive
LOC339685 | SID131503048 | 0 | inactive
GDPD2 | SID131507870 | 0 | inactive
LOC441735 | SID131520541 | 1 | inactive
C4BPB | SID131509878 | 0 | inactive
C4BPB | SID131511747 | 0 | inactive
CCDC167 | SID131505255 | 0 | inactive
DKFZp761D1918 | SID131511691 | 0 | inactive
ZNF473 | SID131512806 | 0 | inactive
LDHAL6B | SID131514730 | 0 | inactive
TASP1 | SID131510591 | 0 | inactive
FRG2 | SID131520993 | 1 | inactive
RIPOR2 | SID131515960 | 0 | inactive
OR7C1 | SID131512360 | 0 | inactive
SLITRK5 | SID131514258 | 0 | inactive
RBBP8NL | SID131507568 | 0 | inactive
ADORA3 | SID131514947 | 0 | inactive
ADORA3 | SID131520589 | 1 | inactive
ANP32D | SID131512288 | 0 | inactive
ANP32D | SID131518548 | 0 | inactive
ACTB | SID131506073 | 0 | inactive
COX7A1 | SID131520150 | 1 | inactive
IGHV3OR16-12 | SID131515019 | 0 | inactive
ESX1 | SID131501069 | -1 | inactive
ARSF | SID131506802 | 0 | inactive
NKAPP1 | SID131505307 | 0 | inactive
LOC390616 | SID131502697 | -1 | inactive
OTOS | SID131504293 | 0 | inactive
AREG | SID131522571 | 1 | inactive
DSCR9 | SID131521713 | 1 | inactive
ATP6V0E1 | SID131508809 | 0 | inactive
SAMD14 | SID131509728 | 0 | inactive
TRMU | SID131517268 | 0 | inactive
RINT1 | SID131519215 | 1 | inactive
IL21 | SID131500502 | -1 | inactive
PAFAH1B1 | SID131518198 | 0 | inactive
PDGFRB | SID131520135 | 1 | inactive
RHOBTB1 | SID131516316 | 0 | inactive
RIPOR1 | SID131503567 | 0 | inactive
NDUFA1 | SID131503482 | 0 | inactive
ZBTB43 | SID131505936 | 0 | inactive
PTH2R | SID131507074 | 0 | inactive
SPRR4 | SID131521776 | 1 | inactive
EGF | SID131517656 | 0 | inactive
MYCLP1 | SID131500495 | -1 | inactive
POTEH | SID131515231 | 0 | inactive
FBXO32 | SID131509879 | 0 | inactive
HDIP1 | SID131507711 | 0 | inactive
KIAA1171 | SID131519853 | 1 | inactive
AHSA1 | SID131522777 | 1 | inactive
PIN4 | SID131521859 | 1 | inactive
AMPH | SID131505461 | 0 | inactive

12 entries from above in another layout:
Gene	PubChem SID	two-siRNA summed score (-2 to +2)	outcome
OTOS	SID131504293	0	inactive
AREG	SID131522571	1	inactive
DSCR9	SID131521713	1	inactive
ATP6V0E1	SID131508809	0	inactive
SAMD14	SID131509728	0	inactive
TRMU	SID131517268	0	inactive
RINT1	SID131519215	1	inactive
IL21	SID131500502	-1	inactive
PAFAH1B1	SID131518198	0	inactive
PDGFRB	SID131520135	1	inactive
RHOBTB1	SID131516316	0	inactive
RIPOR1	SID131503567	0	inactive
